From the supplement of paper PMC12067093, “Discovery and optimisation of a covalent ligand for TRIM25 and its application to targeted protein ubiquitination” (Chemical Science, 2025)
The other results are listed elsewhere or left out.

Protein sequences, listed by entry. Tags and fused reporters are not part of them. Lines headed by an entry give the natural chain unless they say otherwise; changes in a name come on top.
UniProt O60331: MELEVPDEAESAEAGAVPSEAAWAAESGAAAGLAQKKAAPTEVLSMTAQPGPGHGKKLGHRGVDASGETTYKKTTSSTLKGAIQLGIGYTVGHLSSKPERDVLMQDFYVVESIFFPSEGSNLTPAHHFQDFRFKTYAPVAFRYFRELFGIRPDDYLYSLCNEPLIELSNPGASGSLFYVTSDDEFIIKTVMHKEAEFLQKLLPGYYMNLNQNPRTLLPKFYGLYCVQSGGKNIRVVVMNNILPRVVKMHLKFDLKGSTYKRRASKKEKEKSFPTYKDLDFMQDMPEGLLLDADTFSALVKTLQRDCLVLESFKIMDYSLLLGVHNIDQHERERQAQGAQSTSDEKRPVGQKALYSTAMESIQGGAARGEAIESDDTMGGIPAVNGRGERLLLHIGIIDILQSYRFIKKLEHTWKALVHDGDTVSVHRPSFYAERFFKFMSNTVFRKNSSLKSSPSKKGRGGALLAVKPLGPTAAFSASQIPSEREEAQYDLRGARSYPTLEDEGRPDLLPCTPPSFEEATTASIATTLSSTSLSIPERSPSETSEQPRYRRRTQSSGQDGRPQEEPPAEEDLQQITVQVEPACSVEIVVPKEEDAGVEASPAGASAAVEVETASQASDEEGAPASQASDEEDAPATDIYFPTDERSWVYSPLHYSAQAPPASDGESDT
UniProt P48739: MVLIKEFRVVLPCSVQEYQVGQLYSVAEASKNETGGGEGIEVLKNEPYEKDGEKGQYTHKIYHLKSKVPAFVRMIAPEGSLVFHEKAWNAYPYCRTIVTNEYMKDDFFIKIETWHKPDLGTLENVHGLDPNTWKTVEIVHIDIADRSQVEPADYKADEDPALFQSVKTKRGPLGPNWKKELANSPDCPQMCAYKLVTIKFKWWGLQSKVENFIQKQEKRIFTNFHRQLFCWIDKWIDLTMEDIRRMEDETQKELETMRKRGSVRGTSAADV
UniProt Q8IYS1: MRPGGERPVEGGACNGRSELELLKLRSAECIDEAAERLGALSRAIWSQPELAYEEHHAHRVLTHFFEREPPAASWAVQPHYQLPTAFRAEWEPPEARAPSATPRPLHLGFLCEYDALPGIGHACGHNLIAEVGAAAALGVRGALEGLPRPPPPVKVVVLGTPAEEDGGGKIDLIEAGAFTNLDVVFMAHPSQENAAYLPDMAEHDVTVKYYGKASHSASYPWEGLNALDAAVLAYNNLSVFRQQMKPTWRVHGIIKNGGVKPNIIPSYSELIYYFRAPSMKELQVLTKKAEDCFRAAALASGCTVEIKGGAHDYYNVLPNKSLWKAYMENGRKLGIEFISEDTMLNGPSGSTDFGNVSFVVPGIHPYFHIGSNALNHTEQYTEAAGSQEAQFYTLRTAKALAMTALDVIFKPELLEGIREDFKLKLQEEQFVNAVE
UniProt Q9GZP4: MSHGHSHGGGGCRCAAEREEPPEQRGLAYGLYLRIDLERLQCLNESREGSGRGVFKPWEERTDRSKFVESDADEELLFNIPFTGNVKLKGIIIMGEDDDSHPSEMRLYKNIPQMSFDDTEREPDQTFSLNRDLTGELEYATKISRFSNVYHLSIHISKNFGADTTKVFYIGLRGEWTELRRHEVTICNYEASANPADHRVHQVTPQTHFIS
UniProt Q92871: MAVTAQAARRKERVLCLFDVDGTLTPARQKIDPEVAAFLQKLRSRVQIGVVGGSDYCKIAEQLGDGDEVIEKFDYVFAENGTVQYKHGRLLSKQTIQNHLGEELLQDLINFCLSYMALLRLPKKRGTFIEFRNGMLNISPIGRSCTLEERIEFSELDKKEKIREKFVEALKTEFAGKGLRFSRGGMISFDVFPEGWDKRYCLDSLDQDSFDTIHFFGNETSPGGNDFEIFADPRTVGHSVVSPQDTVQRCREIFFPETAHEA
UniProt O15305: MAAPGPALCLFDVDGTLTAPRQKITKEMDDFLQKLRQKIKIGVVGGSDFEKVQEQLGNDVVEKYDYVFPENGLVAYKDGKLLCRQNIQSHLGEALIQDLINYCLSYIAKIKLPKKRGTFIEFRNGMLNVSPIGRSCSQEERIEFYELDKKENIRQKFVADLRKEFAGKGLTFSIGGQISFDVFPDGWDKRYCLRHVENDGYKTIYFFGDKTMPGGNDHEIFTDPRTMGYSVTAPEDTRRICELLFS
UniProt O75439: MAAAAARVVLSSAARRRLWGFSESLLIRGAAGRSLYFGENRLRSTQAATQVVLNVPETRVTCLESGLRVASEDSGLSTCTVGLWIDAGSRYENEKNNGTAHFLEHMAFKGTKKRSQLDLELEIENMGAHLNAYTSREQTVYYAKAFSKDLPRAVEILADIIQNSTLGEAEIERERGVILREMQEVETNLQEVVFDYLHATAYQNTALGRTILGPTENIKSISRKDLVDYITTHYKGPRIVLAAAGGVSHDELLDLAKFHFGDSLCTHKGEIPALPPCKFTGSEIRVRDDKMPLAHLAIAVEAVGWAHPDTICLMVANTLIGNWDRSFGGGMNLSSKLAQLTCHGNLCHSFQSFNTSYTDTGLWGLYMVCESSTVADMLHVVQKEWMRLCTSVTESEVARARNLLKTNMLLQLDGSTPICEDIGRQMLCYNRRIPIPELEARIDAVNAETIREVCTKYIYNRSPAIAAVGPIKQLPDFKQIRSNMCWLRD
UniProt P16885: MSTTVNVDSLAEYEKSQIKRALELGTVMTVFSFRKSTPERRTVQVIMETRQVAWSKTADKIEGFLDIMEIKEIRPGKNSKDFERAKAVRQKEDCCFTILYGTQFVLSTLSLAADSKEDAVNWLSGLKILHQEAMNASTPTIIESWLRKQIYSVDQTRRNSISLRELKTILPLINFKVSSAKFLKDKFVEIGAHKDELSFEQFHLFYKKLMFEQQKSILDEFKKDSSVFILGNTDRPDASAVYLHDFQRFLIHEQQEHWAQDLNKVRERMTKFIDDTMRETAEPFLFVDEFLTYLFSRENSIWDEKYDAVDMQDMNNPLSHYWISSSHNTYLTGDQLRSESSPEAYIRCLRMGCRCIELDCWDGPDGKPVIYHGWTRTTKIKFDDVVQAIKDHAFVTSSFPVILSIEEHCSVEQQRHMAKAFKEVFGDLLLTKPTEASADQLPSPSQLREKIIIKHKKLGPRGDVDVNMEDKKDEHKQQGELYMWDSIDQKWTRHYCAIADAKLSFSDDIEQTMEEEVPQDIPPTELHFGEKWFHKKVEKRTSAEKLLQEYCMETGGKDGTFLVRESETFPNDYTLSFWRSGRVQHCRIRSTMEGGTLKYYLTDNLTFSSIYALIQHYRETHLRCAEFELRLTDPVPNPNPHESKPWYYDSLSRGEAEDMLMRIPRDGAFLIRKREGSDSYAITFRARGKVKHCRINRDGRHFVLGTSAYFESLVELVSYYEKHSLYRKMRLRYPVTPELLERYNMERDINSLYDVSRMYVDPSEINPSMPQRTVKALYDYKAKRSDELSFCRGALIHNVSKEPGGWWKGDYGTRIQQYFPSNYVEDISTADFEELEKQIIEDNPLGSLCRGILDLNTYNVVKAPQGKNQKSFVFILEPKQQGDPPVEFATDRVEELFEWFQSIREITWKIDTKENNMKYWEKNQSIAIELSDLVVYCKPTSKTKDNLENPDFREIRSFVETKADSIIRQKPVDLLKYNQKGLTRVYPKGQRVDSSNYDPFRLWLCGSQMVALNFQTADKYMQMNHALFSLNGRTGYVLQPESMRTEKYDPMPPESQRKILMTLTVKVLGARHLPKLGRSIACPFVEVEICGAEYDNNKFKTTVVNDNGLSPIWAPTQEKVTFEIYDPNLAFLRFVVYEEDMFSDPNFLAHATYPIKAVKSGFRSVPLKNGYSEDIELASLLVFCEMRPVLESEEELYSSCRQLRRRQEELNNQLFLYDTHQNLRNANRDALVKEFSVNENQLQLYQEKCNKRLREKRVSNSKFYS
UniProt P19174: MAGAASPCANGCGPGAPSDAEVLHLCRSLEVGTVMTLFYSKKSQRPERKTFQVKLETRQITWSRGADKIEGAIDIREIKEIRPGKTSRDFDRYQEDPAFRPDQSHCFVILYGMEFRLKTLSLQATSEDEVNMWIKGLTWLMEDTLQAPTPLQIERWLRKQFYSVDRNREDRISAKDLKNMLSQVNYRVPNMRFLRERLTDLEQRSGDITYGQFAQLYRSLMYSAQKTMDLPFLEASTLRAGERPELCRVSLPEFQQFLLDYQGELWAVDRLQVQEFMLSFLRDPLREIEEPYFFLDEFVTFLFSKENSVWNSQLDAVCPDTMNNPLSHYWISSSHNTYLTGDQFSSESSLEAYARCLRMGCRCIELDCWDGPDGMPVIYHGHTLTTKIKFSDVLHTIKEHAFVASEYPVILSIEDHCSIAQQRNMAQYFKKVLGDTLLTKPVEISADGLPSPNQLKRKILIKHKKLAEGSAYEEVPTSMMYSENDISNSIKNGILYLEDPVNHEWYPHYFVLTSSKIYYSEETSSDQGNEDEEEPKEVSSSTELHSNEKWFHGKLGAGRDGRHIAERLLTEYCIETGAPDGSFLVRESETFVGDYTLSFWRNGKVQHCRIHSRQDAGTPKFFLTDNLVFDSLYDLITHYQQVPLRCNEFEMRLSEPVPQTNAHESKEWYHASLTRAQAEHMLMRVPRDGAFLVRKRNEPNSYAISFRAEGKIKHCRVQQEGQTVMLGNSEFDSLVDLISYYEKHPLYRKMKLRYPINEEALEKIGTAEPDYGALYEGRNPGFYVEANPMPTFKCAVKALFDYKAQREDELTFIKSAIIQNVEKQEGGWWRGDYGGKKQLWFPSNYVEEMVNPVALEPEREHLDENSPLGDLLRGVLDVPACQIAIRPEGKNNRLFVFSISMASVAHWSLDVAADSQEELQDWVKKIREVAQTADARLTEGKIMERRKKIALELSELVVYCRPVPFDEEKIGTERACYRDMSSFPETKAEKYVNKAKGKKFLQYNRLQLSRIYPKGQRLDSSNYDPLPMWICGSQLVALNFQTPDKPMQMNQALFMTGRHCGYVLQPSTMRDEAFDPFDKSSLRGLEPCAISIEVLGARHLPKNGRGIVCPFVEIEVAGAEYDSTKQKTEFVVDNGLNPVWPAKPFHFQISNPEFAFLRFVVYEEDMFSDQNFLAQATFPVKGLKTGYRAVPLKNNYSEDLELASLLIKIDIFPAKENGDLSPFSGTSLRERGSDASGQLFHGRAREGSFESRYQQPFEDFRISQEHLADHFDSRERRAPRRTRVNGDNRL
UniProt Q16512: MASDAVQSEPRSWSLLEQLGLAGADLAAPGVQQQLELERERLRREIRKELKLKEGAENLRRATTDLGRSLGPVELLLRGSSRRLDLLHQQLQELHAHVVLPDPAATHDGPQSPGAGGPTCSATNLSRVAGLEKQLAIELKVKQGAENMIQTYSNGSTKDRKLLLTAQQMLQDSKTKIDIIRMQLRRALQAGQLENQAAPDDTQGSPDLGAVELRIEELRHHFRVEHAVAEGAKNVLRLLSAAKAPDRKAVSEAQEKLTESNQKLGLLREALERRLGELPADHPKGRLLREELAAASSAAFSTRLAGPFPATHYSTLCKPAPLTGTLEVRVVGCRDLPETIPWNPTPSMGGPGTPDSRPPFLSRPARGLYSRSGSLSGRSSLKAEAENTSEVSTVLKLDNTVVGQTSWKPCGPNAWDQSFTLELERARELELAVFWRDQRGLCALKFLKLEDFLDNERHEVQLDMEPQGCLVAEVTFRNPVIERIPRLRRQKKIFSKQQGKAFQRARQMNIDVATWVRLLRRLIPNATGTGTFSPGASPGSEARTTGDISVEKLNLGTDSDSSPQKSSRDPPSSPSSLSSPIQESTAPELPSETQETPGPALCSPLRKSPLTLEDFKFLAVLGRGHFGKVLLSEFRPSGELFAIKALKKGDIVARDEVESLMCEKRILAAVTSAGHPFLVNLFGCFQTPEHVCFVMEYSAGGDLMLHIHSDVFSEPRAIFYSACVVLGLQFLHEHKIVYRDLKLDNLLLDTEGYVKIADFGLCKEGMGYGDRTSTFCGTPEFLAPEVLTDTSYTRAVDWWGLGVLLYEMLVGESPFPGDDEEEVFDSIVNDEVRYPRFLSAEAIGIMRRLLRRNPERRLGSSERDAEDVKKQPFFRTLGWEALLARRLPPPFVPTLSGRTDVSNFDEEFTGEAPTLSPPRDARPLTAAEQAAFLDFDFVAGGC

compound: CC1Cc2ccccc2N1C(=O)C1CCCN(C1)C(=O)CCl (mixture of isomers) [TRIM25 ligand 11 (diastereomer mixture)]; assay: probe-labelled cysteine peptide fold change vs DMSO (competition) (log2 fold change); higher = less target engagement (more negative = stronger competition); details: 10 µM; THP-1; incubation time: 4 h
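Further: competitive chemoproteomic profiling in live THP-1 cells with an iodoacetamide desthiobiotin (IA-DTB) probe, comparing probe-labelled peptide intensities in compound-treated cells against DMSO-treated controls.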

| Target | probe-labelled cysteine peptide fold change |
| --- | --- |
| PIK3R4_Q99570_955_EQCNAER (UniProt Q99570) | -0.0631 |
| PIP5K1C_O60331_225_FYGLYCVQSGGK (UniProt O60331) | 0.0274 |
| PITPNB_P48739_13_VVLPCSVQEYQVGQLYSVAEASK (UniProt P48739) | 0.0171 |
| PM20D2_Q8IYS1_14_MRPGGERPVEGGACNGR (UniProt Q8IYS1) | -0.0138 |
| PIKFYVE_Q9Y2I7_421_WLDCVSHHDQLFR (UniProt Q9Y2I7) | 0.274 |
| PLXNC1_O60486_1217_IPENESADVCR (UniProt O60486) | 0.0621 |
| PITHD1_Q9GZP4_42_LQCLNESR (UniProt Q9GZP4) | 0.109 |
| PKM_P14618_152_CDENILWLDYK (UniProt P14618) | 0.0775 |
| PMM1_Q92871_145_SCTLEER (UniProt Q92871) | 0.143 |
| PMM2_O15305_9_AAPGPALCLFDVDGTLTAPR (UniProt O15305) | 0.042 |
| PMPCB_O75439_419_TNMLLQLDGSTPICEDIGR (UniProt O75439) | 0.0199 |
| PLCG2_P16885_937_NQSIAIELSDLVVYCKPTSK (UniProt P16885) | 0.0579 |
| PLCG1_P19174_12_AGAASPCANGCGPGAPSDAEVLHLCR (UniProt P19174) | -0.258 |
| PML_P29590_57_CQQCQAEAK (UniProt P29590) | -0.104 |
| PKN1_Q16512_469_HEVQLDMEPQGCLVAEVTFR (UniProt Q16512) | -0.0844 |
| PIK3C3_Q8NEB9_336_CVNWDLPQEAK (UniProt Q8NEB9) | 0.0288 |

Some of the entries so far, tab-delimited:
Target	probe-labelled cysteine peptide fold change
PMPCB_O75439_419_TNMLLQLDGSTPICEDIGR (UniProt O75439)	0.0199
PLCG1_P19174_12_AGAASPCANGCGPGAPSDAEVLHLCR (UniProt P19174)	-0.258
